# Assay results reported in patent US20180230225A1 (LEGEND BIOTECH USA, published 2018).
# Chains of the proteins cited; added tags and fusions are not shown. Residues count along the entry.
# UniProt Q02223, residues 1-54: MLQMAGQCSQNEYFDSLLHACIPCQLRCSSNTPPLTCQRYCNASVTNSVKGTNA
# Results are given in words; binding and its absence hold for the method and conditions named. Some results given as binding are weak or reduced against the parent protein; the word gives no strength. For part of these data: Tags and fused reporters may be left off the sequences shown.
# T1: recombinant human CD20 protein having a C-terminal Fc tag (ACRO Biosystems, Cat No.: CD0-H526a) (human) (UniProt P11836)
# T1 sequence (looked up): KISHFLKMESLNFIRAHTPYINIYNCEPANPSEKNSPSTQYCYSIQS
# T2: recombinant human CD38 protein having a C-terminal His tag (ACRO Biosystems, Cat No.: CD8-H5224) (human) (UniProt P28907)
# T2 sequence (looked up): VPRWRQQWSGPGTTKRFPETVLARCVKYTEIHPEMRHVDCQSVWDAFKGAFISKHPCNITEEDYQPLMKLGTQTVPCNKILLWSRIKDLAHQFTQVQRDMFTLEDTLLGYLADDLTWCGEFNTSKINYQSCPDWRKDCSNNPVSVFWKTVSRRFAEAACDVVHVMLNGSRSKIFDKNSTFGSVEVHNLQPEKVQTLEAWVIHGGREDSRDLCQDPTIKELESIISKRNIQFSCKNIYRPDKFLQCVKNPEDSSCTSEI
# Experiments:
# [1] = target: T1, recombinant human CD20 protein having a C-terminal Fc tag (ACRO Biosystems, Cat No.: CD0-H526a) (human); test: phage ELISA on the recombinant antigen, by a process similar to the one described for BCMA
# [2] = target: T2, recombinant human CD38 protein having a C-terminal His tag (ACRO Biosystems, Cat No.: CD8-H5224) (human); test: as above
# [3] = target: recombinant human BCMA protein having a C-terminal Fc tag (ACRO Biosystems, Cat No.: BC7-H5254) (human) (UniProt Q02223); test: phage ELISA: plate coated with recombinant human BCMA protein (Fc control protein in parallel) or CHO-BCMA cells; phage supernatant, HRP anti-M13, A450
binder,measurement,setting,value
CD20 VHH (VHH) VHH: PVQLVESGGGLVQAGDSLRLSCAASGRTFGIGTMGWFRQPPGKEREFVAAIRWSTGGTRYADSVKGRFTISRDNAKLTVDLQMDSLKPEDTAVYYCAADRLSLDLSGRYHYNPAVYDYWGQGTQVTVSS,binding,[1],binds
38A37730 (VHH) VHH: AVQLVDSGGGLAQTGGSLRLSCAASQGIFTINAMGWYRQVPGKQRELVAEVSSGGRTDYADSVKGRFTISRDNAKNTVYLQMNSLKPEDTGVYYCRVSGWHVFVGDRIVWGQGTLVTVSS,binding,[2],binds
269A37348 (VHH) VHH: QVKLEESGGRLVQPRGSLRLSCAGSGRTFSTYGMAWFRQAPGKEREFVASKASMNYSGRTYYADSVKGRFTIARDNAKNMVFLQMNNLKPEDTAVYYCAAGTGCSTYGCFDAQIIDYWGKGTLVTVSS,binding,[3],binds
